Patent US20240342156A1, “METHODS FOR TREATING PAIN” (Xenon Pharmaceuticals Inc., priority 2019, published 2024)

System: rat spinal nerve ligation (SNL)/Chung model of neuropathic pain
Assay: Spinal nerve ligation (SNL)/Chung model, tactile allodynia, electronic von Frey test on lesioned paw
Format: in vivo
Settings: 128 mg/kg p.o., inter-group comparison
Experimental: Objective: The efficacy of Compound A was assessed using the rat spinal nerve ligation (SNL)/Chung model of neuropathic pain. The SNL model in rats was developed as described previously (Chung J M, Kim H K, Chung K. “Segmental spinal nerve ligation model of neuropathic pain.” Methods Mol. Med. 99 (2004) 35-45).
Study Design. Briefly, on Day 0, von Frey and cold plate tests were used for baseline measurements of tactile and cold allodynia respectively. Post-baseline measurements, rats (171-209 g male Sprague Dawley) were anesthetized and an incision at the L4-S2 level was performed to expose the left L5 nerve. […] On Day 13, post-surgery baselines for tactile and cold allodynia were measured to verify neuropathic pain. […]
Rats were placed under an inverted acrylic plastic box on a grid floor. The tip of an electronic von Frey probe was then applied with increasing force to the surgery hind paw and the force required to induce paw-withdrawal was automatically recorded. The procedure was carried out 3 times and the mean paw withdrawal force was calculated. […]

CN1CC[C@]23c4c5ccc(O)c4O[C@H]2[C@@H](O)C=C[C@H]3[C@H]1C5.Cl [Morphine, Morphine hydrochloride, reference compound]
Delta from baseline of force, significance compared with Vehicle (p.o.), column c (Day 14, test 1 h after administration): *** (*** = p < 0.001)
Delta from baseline of force, significance compared with Vehicle (p.o.), column c (Day 18, test 1 h after administration): *** (*** = p < 0.001)
